Test results from PubChem BioAssay AID2685 (National Center for Advancing Translational Sciences (NCATS), 2010).
Screen size: about 320,000 compounds; about 2,100 (0.66%) were called active. This list was built around the results that the source calls inconclusive (neither active nor inactive); the mix of calls is not that of the screen. Calls follow the shape of the dose curve; as a rule, active = well fitted inhibition curve with a large enough effect in the signal ratio, with a control signal flat (not every such curve was filed as active); inconclusive = small, poorly fitted or top-dose-only effect, or effect the other way, or a change in a side signal; inactive = flat fitted curve, though single readings scatter; the % refers to the signal ratio. Where the call is inconclusive, the potency comes from a doubtful curve fit.

assay: qHTS Assay for Lipid Storage Modulators in Drosophila S3 Cells; details: BODIPY lipid droplet fluorescence, 18-24 h, cells fed with added oleic acid; lipid storage change, negative = inhibition: at 46.1 µM (top of the series) unless noted
Summary of the method: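 Drosophila S3 cells got compounds at several concentrations plus oleic acid (400 uM solution). Laser-scanning cytometry with 488 nm excitation read lipid droplets at 500-530 nm and cells at 575-640 nm. Percent activity was relative to 20 uM Triacsin C.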
% is scaled to controls: 0 for no effect and ±100 for the full control effect; potency is read from the fitted curve at half-maximal effect.

Compound	lipid storage change, negative = inhibition	Potency
O=C(O)c1csc(-c2ccccc2)n1	inconclusive: -17.5%	
O=C(COc1ccccc1)NC1C(=O)N2C(C(=O)O)=C(Cl)CSC12 (stereo not drawn)	inconclusive: 7.26%	
C=CCCOc1ccccc1C(N)=O	inconclusive: 1.51%	
CC(OC(=O)c1ccc2ccccc2c1)C(=O)N(C)Cc1ccccc1 (stereo not drawn)	inconclusive: 31.2%	
CCOc1ccc(S(=O)(=O)NCCCN2CCOCC2)c2ccccc12	inconclusive: -7.33%	
Fc1ccc(OCc2nn3cnnc3s2)cc1	inconclusive: -64.1%	
O=C(CN1CCSCC1)N/N=C/c1cccc(Cl)c1	inconclusive: 43.6%	
Cc1nnc(SCC2=C(C(=O)O)N3C(=O)C(NC(=O)Cc4ccccc4)C3SC2)s1 (stereo not drawn)	inconclusive: 20.9%	
CCN(CC)S(=O)(=O)c1ccc2c(c1)nc(SCC(N)=O)n2-c1ccc(OC)cc1	inconclusive: 7.1%	
COc1cccc(C(=O)NCCCn2ccnc2)c1	inconclusive: -42.4% [cytotoxic] [at 0.00295 µM]	
CCN(CC)c1ccc(/C=C(/C#N)C(=O)NC(C)C)o1	inconclusive: 2.49%	
Cc1cccc([N+](=O)[O-])c1NC(=O)CN(Cc1ccccc1)Cc1ccccc1	inconclusive: -38.2%	
Cc1ccc(SCCC(=O)Nc2ccccc2C(=O)N2CCOCC2)cc1	inconclusive: 3.4%	
Cc1c(OC(C)C(=O)NCCCN2CCCC2=O)ccc2c3c(c(=O)oc12)CCCC3 (stereo not drawn)		inconclusive: 29.1 µM [falling, single point]
O=C(/C=C/N1CCN(Cc2ccccc2)CC1)C(F)(F)F	inactive: -0.119% [at 9.22 µM]	
Cc1nn(C)c(C)c1NS(=O)(=O)c1ccc(OC(F)(F)F)cc1	inconclusive	
CCOc1ccc(NS(=O)(=O)c2ccc3[nH]c(=O)cc(C(=O)O)c3c2)cc1		inconclusive: 29.1 µM [cytotoxic, single point]
CC(OC(=O)CNC(=O)c1sc2ccccc2c1Cl)C(=O)NC1(C#N)CCCCC1 (stereo not drawn)	inconclusive: 23.8%	
Cc1ccc(S(=O)(=O)N2CC(C(=O)O)=CC[C@H]2c2ccc3c(c2)OCO3)cc1	inconclusive: -63.2%	
COC(=O)c1c(C)nsc1NC(=O)Oc1ccccc1	inconclusive: 11%	
O=C(OCC(=O)N1CCCC1)c1c[nH]c2ccccc12		inconclusive: 29.1 µM [falling, single point]
O=C(CSc1nnc2ccc3ccccc3n12)c1ccc(F)cc1	inconclusive: 25.8%	
Cn1c(CN2CCOCC2)nnc1SCC(=O)Nc1ccc([N+](=O)[O-])cc1O	inconclusive: 42.5%	

Two of the compounds above, with bars between the fields.
Compound | lipid storage change, negative = inhibition | Potency
O=C(O)c1csc(-c2ccccc2)n1 | inconclusive: -17.5% | 
O=C(COc1ccccc1)NC1C(=O)N2C(C(=O)O)=C(Cl)CSC12 (stereo not drawn) | inconclusive: 7.26% | 
